# Source: patent US20170306042A1, “IMMUNOGENIC MODULATION BY ENDOCRINE DEPRIVATION THERAPY IMPROVES SENSITIVITY OF TUMOR CELLS TO IMMUNE MEDIATED LYSIS” (The United States of America, as represented by the …, priority 2014, published 2017)
# For at least one compound, name, drawing or mass did not settle the structure.
# Tests used:
# ZR75-1 (ER+AR+) cells = assay: CEA-specific CTL lysis assay, ZR75-1 targets; type: cell-based, human; conditions: 10 μM, E:T 30:1, vs vehicle
# Method: (§1) The HLA-A2-restricted CEA-specific CTL recognizes the CEA peptide epitope […] (SEQ ID NO: 1) (CAP-1). […] The percentage of tumor lysis was calculated as follows: % tumor lysis=[(experimental cpm−spontaneous cpm)/(maximum cpm−spontaneous cpm)]×100.
# (§2) These cells were then used as target cells for CTL-mediated killing assays utilizing CEA-specific CTLs.
# PC-3 cells = assay: MUC1-specific CTL lysis assay, PC-3 targets; type: cell-based, human; conditions: 10 μM, 48 hours, E:T 30:1, vs vehicle
# LNCaP cells = assay: MUC1-specific CTL lysis assay, LNCaP targets; type: cell-based, human; conditions: 10 μM, 48 hours, E:T 30:1, vs vehicle
# CRPC = conditions: phase III, CRPC previously treated with docetaxel (de Bono et al. 2011); cited from earlier work
# [1] = test system: MDA MB 231 (ER−AR−) cells; assay: CEA-specific CTL lysis assay, MDA MB 231 targets; type: cell-based, human; conditions: 10 μM, E:T 30:1, vs vehicle
# Method: as §1
# OPG expression was inhibited in MDA MB 231 cells using siRNA duplexes targeting OPG sequences and control siRNA duplexes (Origene, Rockville, Md.). MDA-MB-231 cells were transfected with OPG or control siRNA according to the manufacturer's instructions. […] Forty-eight hours post siRNA transfection, the MDA MB 231 cells were also used as target cells in CEA-specific CTL and TRAIL-mediated lysis assays as described.
# as §2
smiles,measurement,setting,value
C[C@]12CC[C@H](O)CC1=CC[C@@H]1[C@@H]2CC[C@]2(C)C(c3cccnc3)=CC[C@@H]12 [abiraterone],sensitivity to CEA-specific CTL-mediated lysis,ZR75-1 (ER+AR+) cells,enhanced sensitivity
same,sensitivity to MUC1-specific CTL-mediated lysis,PC-3 cells,neither enzalutamide nor abiraterone improved PC-3 cells' sensitivity
same,sensitivity to MUC1-specific CTL-mediated lysis,LNCaP cells,significantly improved their sensitivity
same,improvement of overall survival compared to placebo,CRPC,3.9 months
same,sensitivity to CEA-specific CTL-mediated lysis,[1],enhanced sensitivity
